Results published in patent US6878698B2, “Anti-inflammatory androstane derivatives” (Glaxo Group Limited, priority 2001, dated 2005).
pEC50: −log10 of the molar value. Some results were stated once for a whole list of compounds, not compound by compound.

target: T1, glucocorticoid receptor (Homo sapiens, UniProt P04150); experiment: Functional in vitro assay of glucocorticoid agonist activity (A549 cells, NF-κB/ELAM promoter sPAP reporter, TNF stimulated); assay type: cell-based; conditions: NF-κB responsive sPAP reporter, compound 1 hour at 37° C., then TNF 10 ng/ml for 16 hours
T1 construct: A549 cells stably transfected with a reporter gene containing the NF-κB responsive elements from the ELAM gene promoter; endogenous in cells; host or cells: A549 cells stably transfected with the reporter gene only
T1 sequence (P04150 1-777): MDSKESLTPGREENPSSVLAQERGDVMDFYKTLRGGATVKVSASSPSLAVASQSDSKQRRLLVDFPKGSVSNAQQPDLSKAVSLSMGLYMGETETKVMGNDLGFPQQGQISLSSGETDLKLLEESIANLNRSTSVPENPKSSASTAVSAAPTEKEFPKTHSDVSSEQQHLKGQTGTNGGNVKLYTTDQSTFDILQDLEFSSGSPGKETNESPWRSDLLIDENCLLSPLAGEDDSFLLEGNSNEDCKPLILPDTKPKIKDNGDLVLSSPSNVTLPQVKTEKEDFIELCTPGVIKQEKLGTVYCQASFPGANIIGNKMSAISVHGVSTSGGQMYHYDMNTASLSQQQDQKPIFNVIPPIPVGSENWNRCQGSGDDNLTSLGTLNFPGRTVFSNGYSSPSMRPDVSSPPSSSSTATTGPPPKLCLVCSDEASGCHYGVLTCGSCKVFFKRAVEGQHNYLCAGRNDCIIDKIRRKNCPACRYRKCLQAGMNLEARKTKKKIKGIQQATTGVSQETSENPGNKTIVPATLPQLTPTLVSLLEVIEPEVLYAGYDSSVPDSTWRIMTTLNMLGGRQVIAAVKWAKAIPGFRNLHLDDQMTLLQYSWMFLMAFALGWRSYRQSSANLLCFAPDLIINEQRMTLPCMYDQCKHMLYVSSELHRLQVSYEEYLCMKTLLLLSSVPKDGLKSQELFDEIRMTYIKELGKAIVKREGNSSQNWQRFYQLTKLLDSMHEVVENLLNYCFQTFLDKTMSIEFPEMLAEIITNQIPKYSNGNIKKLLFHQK
Procedure: Pharmacological activity was assessed in a functional in vitro assay of glucocorticoid agonist activity which is generally predictive of anti-inflammatory or anti-allergic activity in vivo.
A549 cells stably transfected with a reporter gene containing the NF-κB responsive elements from the ELAM gene promoter coupled to sPAP (secreted alkaline phosphatase) were treated with test compounds at appropriate doses for 1 hour at 37° C. […] Dose response curves were constructed from which EC50 values were estimated.

Row | SMILES | pEC50
1 | Cc1cc(C(=O)OC2(C(=O)SCF)C(C)CC3C4CC(F)C5=CC(=O)C=CC5(C)C4(F)C(O)CC32C)on1 (stereo not drawn) [Example 25, 6α,9α-Difluoro-11β-hydroxy-16α-methyl-17α-[(3-methylisoxazole-5-carbonyl)oxy]-3-oxo-androsta-1,4-diene-17β-carbothioic acid S-fluoromethyl ester] | > 9.00
2 | Cc1cc(C(=O)OC2(C(=O)SCF)C(C)CC3C4CC(F)C5=CC(=O)C=CC5(C)C4(F)C(O)CC32C)n(C)n1 (stereo not drawn) [Example 26, 6α,9α-Difluoro-17α-[(1,3-dimethyl-1H-pyrazole-5-carbonyl)oxy]-11β-hydroxy-16α-methyl-3-oxo-androsta-1,4-diene-17β-carbothioic acid S-fluoromethyl ester] | > 9.00
3 | CCn1nc(C)cc1C(=O)OC1(C(=O)SCF)C(C)CC2C3CC(F)C4=CC(=O)C=CC4(C)C3(F)C(O)CC21C (stereo not drawn) [Example 42, 17α-[(1-Ethyl-3-methyl-1H-pyrazole-5-carbonyl)oxy]-6α,9α-difluoro-11β-hydroxy-16α-methyl-3-oxo-androsta-1,4-diene-17β-carbothioic acid S-fluoromethyl ester] | > 9.00
4 | Cc1ccsc1C(=O)OC1(C(=O)SCF)C(C)CC2C3CC(F)C4=CC(=O)C=CC4(C)C3(F)C(O)CC21C (stereo not drawn) [Example 40, 6α,9α-Difluoro-11β-hydroxy-16α-methyl-17α-[(3-methylthiophene-2-carbonyl)oxy]-3-oxo-androsta-1,4-diene-17β-carbothioic acid S-fluoromethyl ester] | > 9.00
5 | Cc1ccoc1C(=O)OC1(C(=O)SCF)C(C)CC2C3CC(F)C4=CC(=O)C=CC4(C)C3(F)C(O)CC21C (stereo not drawn) [Example 19, 6α,9α-Difluoro-11β-hydroxy-16α-methyl-17α-[(3-methylfuran-2-carbonyl)oxy]-3-oxo-androsta-1,4-diene-17β-carbothioic acid S-fluoromethyl ester] | > 9.00
6 | CC1CC2C3CC(F)C4=CC(=O)C=CC4(C)C3(F)C(O)CC2(C)C1(OC(=O)c1cccs1)C(=O)SCF (stereo not drawn) [Example 3, 6α,9α-Difluoro-11β-hydroxy-16α-methyl-3-oxo-17α-[(2-thienylcarbonyl)oxy]-androsta-1,4-diene-17β-carbothioic acid S-fluoromethyl ester] | > 9.00
7 | CC1CC2C3CC(F)C4=CC(=O)C=CC4(C)C3(F)C(O)CC2(C)C1(OC(=O)c1ccoc1)C(=O)SCF (stereo not drawn) [Example 2, 6α,9α-Difluoro-17α-[(3-furanylcarbonyl)oxy]-11β-hydroxy-16α-methyl-3-oxo-androsta-1,4-diene-17β-carbothioic acid S-fluoromethyl ester] | > 9.00
8 | CC1CC2C3CC(F)C4=CC(=O)C=CC4(C)C3(F)C(O)CC2(C)C1(OC(=O)c1sccc1Br)C(=O)SCF (stereo not drawn) [Example 13, 17α-[(3-Bromothiophene-2-carbonyl)oxy]-6α,9α-difluoro-11β-hydroxy-16α-methyl-3-oxo-androsta-1,4-diene-17β-carbothioic acid S-fluoromethyl ester] | > 9.00
9 | COc1cscc1C(=O)OC1(C(=O)SCF)C(C)CC2C3CC(F)C4=CC(=O)C=CC4(C)C3(F)C(O)CC21C (stereo not drawn) [Example 29, 6α,9α-Difluoro-11β-hydroxy-17α-[(4-methoxy-thiophene-3-carbonyl)oxy]-16α-methyl-3-oxo-androsta-1,4-diene-17β-carbothioic acid S-fluoromethyl ester] | > 9.00
10 | Cc1oncc1C(=O)OC1(C(=O)SCF)C(C)CC2C3CC(F)C4=CC(=O)C=CC4(C)C3(F)C(O)CC21C (stereo not drawn) [Example 20, 6α,9α-Difluoro-11βhydroxy-16α-methyl-17α-[(5-methylisoxazole-4-carbonyl)oxy]-3-oxo-androsta-1,4-diene-17β-carbothioic acid S-fluoromethyl ester] | > 9.00
11 | CC1CC2C3CC(F)C4=CC(=O)C=CC4(C)C3(F)C(O)CC2(C)C1(OC(=O)c1cccn1C)C(=O)SCF (stereo not drawn) [Example 21, 6α,9α-Difluoro-11β-hydroxy-16α-methyl-17α-[(1-methyl-1H-pyrrole-2-carbonyl)oxy]-3-oxo-androsta-1,4-diene-17β-carbothioic acid S-fluoromethyl ester] | > 9.00
12 | CC1CC2C3CC(F)C4=CC(=O)CCC4(C)C3(F)C(O)CC2(C)C1(OC(=O)c1ccco1)C(=O)SCF (stereo not drawn) [Example 7, 6α,9α-Difluoro-17α-[(2-furanylcarbonyl)oxy]-11β-hydroxy-16α-methyl-3-oxo-androst-4-ene-17β-carbothioic acid S-fluoromethyl ester] | > 9.00
13 | CC1CC2C3CC(F)C4=CC(=O)C=CC4(C)C3(F)C(O)CC2(C)C1(OC(=O)c1ccc(Cl)s1)C(=O)SCF (stereo not drawn) [Example 9, 17α-[(5-Chlorothiophene-2-carbonyl)oxy]-6α,9α-difluoro-11β-hydroxy-16α-methyl-3-oxo-androsta-1,4-diene-17β-carbothioic acid S-fluoromethyl ester] | > 9.00
14 | CC1CC2C3CC(F)C4=CC(=O)C=CC4(C)C3(F)C(O)CC2(C)C1(OC(=O)c1cncs1)C(=O)SCF (stereo not drawn) [Example 34, 6α,9α-Difluoro-11β-hydroxy-16α-methyl-3-oxo-17α-[(1,3-thiazole-5-carbonyl)oxy]-androsta-1,4-diene-17β-carbothioic acid S-fluoromethyl ester] | > 9.00
